The list does not hold the whole screen: it is rich in T/C values a quarter to a half above the control, in often repeated tests (any T/C) and in doses without a T/C. Further doses and runs are listed elsewhere. T/C gives the treated animals as a percentage of the vehicle group. Some entries give survivors of the animals treated and no T/C: the source holds a T/C of zero for them, seemingly a mark for toxic or unscored doses. Some doses without a T/C left all or most animals alive at the check, yet need not have been tolerated: the source hardly ever lists a survival T/C far under the control, and the zero likely stands for such cases as well. Counts of survivors are from the toxicity check (mostly the fifth day) where no day follows; animals may have died later. Schedule codes are those of the source, read here as Q, the interval in days (D) or hours (H), X, the number of doses. Where survival is the endpoint, the PubChem record calls one and a half times the control and up active, and a quarter to a half above the control has no call in these data; cut-offs in other NCI protocols can differ. Some T/C values carry the count of animals alive at the toxicity check (mostly the fifth day); without a count, all were alive then. Some doses were run more than once; their values stand side by side, smallest first.

In the assay the test system is BDF1 mice, P388 leukemia ip, median survival T/C. Nature of the assay: NCI In Vivo Anticancer Drug Screen. Data for tumor model P388 Leukemia (intraperitoneal) in B6D2F1 (BDF1) mice. The conditions noted are these: T/C endpoint: median survival time, higher T/C = longer survival. In short, it runs like this:
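Antitumour effect was judged in vivo: survival in drug-treated mice, normalised to that of vehicle-dosed controls, gives the reported T/C.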

Where [1] appears, read: dose: 200.0 mg/kg/injection, schedule: Q01DX009 (ip), vehicle: saline with Tween-80.
Where [2] appears, read: dose: 25.0 mg/kg/injection, schedule: Q01DX009 (ip), vehicle: saline with Tween-80.
The mark [3] stands for this setting: dose: 50.0 mg/kg/injection, schedule: Q01DX009 (ip), vehicle: saline with Tween-80.
Setting [4] is: dose: 100.0 mg/kg/injection, schedule: Q01DX009 (ip), vehicle: saline with Tween-80.
The mark [5] stands for this setting: dose: 400.0 mg/kg/injection, schedule: Q04DX003 (ip), vehicle: saline.
Where [6] appears, read: dose: 50.0 mg/kg/injection, schedule: Q01DX009 (ip), vehicle: Klucel (hydroxypropylcellulose) (HPC).
Where [7] appears, read: dose: 50.0 mg/kg/injection, schedule: Q01DX009 (ip), vehicle: saline.
Where [8] appears, read: dose: 200.0 mg/kg/injection, schedule: Q01DX009 (ip), vehicle: saline.
[9] abbreviates: dose: 75.0 mg/kg/injection, schedule: Q01DX009 (ip), vehicle: Klucel (hydroxypropylcellulose) (HPC).
[10] abbreviates: dose: 150.0 mg/kg/injection, schedule: Q01DX009 (ip), vehicle: Klucel (hydroxypropylcellulose) (HPC).
Setting [11] is: dose: 100.0 mg/kg/injection, schedule: Q01DX009 (ip), vehicle: saline.
[12] abbreviates: dose: 200.0 mg/kg/injection, schedule: Q01DX009 (ip), vehicle: Klucel (hydroxypropylcellulose) (HPC).
Setting [13] is: dose: 37.5 mg/kg/injection, schedule: Q04DX003 (ip), vehicle: saline with Tween-80.

As for `CCOC(=O)C(C(C)=O)C(C)C` (stereo not drawn), the T/C reads like this: (dose: 25.0 mg/kg/injection, schedule: Q01DX005 (ip), vehicle: other) 130 % of control; (dose: 50.0 mg/kg/injection, schedule: Q01DX005 (ip), vehicle: other) 126 % of control.

`COC(=O)C1=C(C)NC(C)=C(C(=O)OC)C1C(C)Cl` (stereo not drawn): the survivor count under setting [1] is 0 of 6.

Take `O=c1[nH]c(Cl)nc2c(Cl)c(C(Cl)(Cl)Cl)nn12`: the survivor count is, setting by setting: under setting [2], 4 of 6; under setting [3], 6 of 6; under setting [4], 6 of 6; under setting [1], 4 of 6; (dose: 200.0 mg/kg/injection, schedule: Q04DX003 (ip), vehicle: saline with Tween-80) 5 of 6.

For `Nc1ccc2c(-c3ccccc3)cc(NCCCN3CCOCC3)nc2n1`, under setting [5], the survivor count is on record as 6 of 6.

With `COc1cccc2c1C(=O)c1c(O)c3c(c(O)c1C2=O)C[C@@](O)(/C(C)=N/NC(=O)c1ccc(N(C)C)cc1)C[C@@H]3OC1CC(N)C(O)C(C)O1` (stereo partly drawn), the T/C is, setting by setting: (dose: 0.25 mg/kg/injection, schedule: Q01DX009 (ip), vehicle: water) 127 % of control; (dose: 4.0 mg/kg/injection, schedule: Q01DX009 (ip), vehicle: water) 137 % of control.

Turning to `c1ccc(OCc2ccc(COc3ccccc3)cc2)cc1`, the survivor count under setting [6] is 6 of 6.

Turning to `N#CO`, the survivor count is given as 6 of 6 under setting [7] and 3 of 6 under setting [8]. For the same compound, the T/C reads like this: (dose: 75.0 mg/kg/injection, schedule: Q01DX009 (ip), vehicle: saline) 136 % of control; (dose: 150.0 mg/kg/injection, schedule: Q01DX009 (ip), vehicle: saline) 127 % of control.

On to `C=C(C)c1cc2c(cc1O)OCC2C` (stereo not drawn), for which the survivor count was 6 of 6 under setting [9]; 6 of 6 under setting [10]; 6 of 6 (dose: 200.0 mg/kg/injection, schedule: Q04DX003 (ip), vehicle: Klucel (hydroxypropylcellulose) (HPC)).

Turning to `Cc1ccc(NS(=O)(=O)c2ccc([N+](=O)[O-])cc2)cc1`, the T/C (dose: 22.0 mg/kg/injection, schedule: Q01DX009 (ip), vehicle: saline with Tween-80) is 125 % of control and the T/C under setting [3] was 131 % of control. Further, the survivor count by setting is: under setting [2], 6 of 6; under setting [1], 6 of 6.

On to `COc1cc(/C=C(/C)[N+](=O)[O-])ccc1O`, for which the T/C was 125 % of control [5 of 6 alive] (dose: 25.0 mg/kg/injection, schedule: Q01DX009 (ip), vehicle: carboxymethylcellulose (CMC)); 148 % of control (dose: 37.5 mg/kg/injection, schedule: Q01DX009 (ip), vehicle: Klucel (hydroxypropylcellulose) (HPC)); 128 % of control under setting [6]; 127 % of control (dose: 50.0 mg/kg/injection, schedule: Q01DX009 (ip), vehicle: carboxymethylcellulose (CMC)); 137 % of control [5 of 6 alive] under setting [7]; 131 % of control under setting [9]. The T/C was 126 and 138 % of control [5 of 6 alive] (dose: 100.0 mg/kg/injection, schedule: Q01DX009 (ip), vehicle: Klucel (hydroxypropylcellulose) (HPC)); 134 % of control [5 of 6 alive] (dose: 100.0 mg/kg/injection, schedule: Q01DX009 (ip), vehicle: carboxymethylcellulose (CMC)); 125 % of control under setting [11]; 128 % of control under setting [12]. Besides, the survivor count is recorded as 1 of 6 under setting [10], 0 of 6 under setting [8] and 0 of 6 under setting [5].

With `C=C1C(=O)O[C@H]2C/C(C)=C/CC/C(CO)=C/[C@@H](O)[C@H]12`, the T/C was 130 % of control (dose: 11.0 mg/kg/injection, schedule: Q01DX009 (ip), vehicle: alcohol) and 125 % of control (dose: 22.0 mg/kg/injection, schedule: Q01DX009 (ip), vehicle: alcohol). For the same compound, the survivor count is, setting by setting: (dose: 75.0 mg/kg/injection, schedule: Q01DX009 (ip), vehicle: alcohol) 3 of 6; (dose: 110.0 mg/kg/injection, schedule: Q01DX009 (ip), vehicle: alcohol) 0 of 6.

On to `Cc1ccc(NCN2C(=O)NC(c3ccccc3)(c3ccccc3)C2=O)cc1`, for which, under “dose: 400.0 mg/kg/injection, schedule: Q01DX001 (ip), vehicle: saline with Tween-80”, the survivor count was 3 of 5.

Take `CCCCCC(CN(C)C)C(=O)/C=C/c1c(Cl)cccc1Cl` (stereo not drawn): the survivor count (dose: 25.0 mg/kg/injection, schedule: Q01DX009 (ip), vehicle: Klucel (hydroxypropylcellulose) (HPC)) was 4 of 6 and the survivor count (dose: 95.0 mg/kg/injection, schedule: Q01DX001 (ip), vehicle: saline) is given as 3 of 6.

As for `CCCCNC(C)(C)C(SSSC(c1ccco1)C(C)(C)NCCCC)c1ccco1` (stereo not drawn), under “dose: 100.0 mg/kg/injection, schedule: Q04DX003 (ip), vehicle: saline with Tween-80”, the T/C was 125 % of control.

Regarding `CC(=O)Nc1nc(Cl)c([N+](=O)[O-])c(SCc2ccccc2)n1`, the survivor count under setting [1] is given as 2 of 6 and the survivor count (dose: 400.0 mg/kg/injection, schedule: Q04DX003 (ip), vehicle: saline with Tween-80) is 0 of 6.

Turning to `NC(=S)N/N=C/C(=N\NC(N)=S)C(O)C(O)C(O)CO` (stereo not drawn), the survivor count is recorded as 3 of 6 (dose: 200.0 mg/kg/injection, schedule: Q04DX003 (ip), vehicle: saline sonified) and 1 of 6 (dose: 400.0 mg/kg/injection, schedule: Q04DX003 (ip), vehicle: saline sonified).

In the case of `C#CC(C)(C)NC(=O)NC12CC3CC(CC(C3)C1)C2`, the survivor count (dose: 100.0 mg/kg/injection, schedule: Q01DX001 (ip), vehicle: saline with Tween-80) is listed as 6 of 6.

As to `O/N=C(\C[n+]1ccccc1)c1ccc2ccccc2c1`, the T/C by setting is: (dose: 6.25 mg/kg/injection, schedule: Q01DX009 (ip), vehicle: saline) 126 % of control; (dose: 12.5 mg/kg/injection, schedule: Q01DX009 (ip), vehicle: Klucel (hydroxypropylcellulose) (HPC)) 140 % of control; (dose: 12.5 mg/kg/injection, schedule: Q01DX009 (ip), vehicle: saline) 128 and 129 % of control; (dose: 25.0 mg/kg/injection, schedule: Q01DX009 (ip), vehicle: saline) 145 % of control. Moreover, the survivor count under setting [11] is 0 of 6.

`CC(NC(=O)C(C)NC(=O)C(N)CCS(C)(=O)=NP(=O)(O)O)C(=O)O` (stereo not drawn): the survivor count under setting [7] was 1 of 3.

Take `CCOC(=O)N1C=Cn2c(cnc2C)C1O` (stereo not drawn): the survivor count by setting is: under setting [8], 5 of 6; (dose: 400.0 mg/kg/injection, schedule: Q01DX009 (ip), vehicle: saline) 6 of 6.

As to `CC(C)(C)NCCC(O)c1cc2c(Cl)cc(Cl)cc2c2cc(C(F)(F)F)ccc12` (stereo not drawn), the survivor count runs as follows: under setting [4], 5 of 6; under setting [1], 1 of 6.

On to `CSC1C(=O)Nc2ccc(Cl)cc21` (stereo not drawn), for which the survivor count (dose: 600.0 mg/kg/injection, schedule: Q04DX003 (ip), vehicle: saline with Tween-80) is 2 of 6.

Regarding `COc1ccc2nc3c(Cl)c(Cl)c(=O)c(Cl)c-3sc2c1`, the survivor count (dose: 50.0 mg/kg/injection, schedule: Q01DX005 (ip), vehicle: saline with Tween-80) was 4 of 6.

Turning to `CC1CCC(C)N1P(=O)(N1CC1)N1CC1` (stereo not drawn), the T/C under setting [13] is 131 % of control. For the same compound, the survivor count was 6 of 6 under setting [13]; 2 of 6 (dose: 100.0 mg/kg/injection, schedule: Q04DX003 (ip), vehicle: saline); 4 of 6 (dose: 200.0 mg/kg/injection, schedule: Q04DX003 (ip), vehicle: saline); 0 of 6 under setting [5].

Turning to `c1cc[c]([Sn]([c]2ccccc2)([c]2ccccc2)[n]2cncn2)cc1`, the survivor count (dose: 12.5 mg/kg/injection, schedule: Q01DX009 (ip), vehicle: saline with Tween-80) is reported as 3 of 3.

Consider `CCOC(=O)c1cc(C(=O)OCC)c(C#N)c(=O)[nH]1`, for which, under setting [12], the survivor count is given as 6 of 6.

Values taken from PubChem BioAssay AID328 (DTP/NCI, 2004).
